Data: the supplement of paper PMC12067093, “Discovery and optimisation of a covalent ligand for TRIM25 and its application to targeted protein ubiquitination” (Chemical Science, 2025)
The list shows a part of the results.

Sequences of proteins named here, by UniProt entry; tags and fusion partners are left off. A change or cut given only in a name is not applied to a line headed by its entry.
UniProt Q9BZL6: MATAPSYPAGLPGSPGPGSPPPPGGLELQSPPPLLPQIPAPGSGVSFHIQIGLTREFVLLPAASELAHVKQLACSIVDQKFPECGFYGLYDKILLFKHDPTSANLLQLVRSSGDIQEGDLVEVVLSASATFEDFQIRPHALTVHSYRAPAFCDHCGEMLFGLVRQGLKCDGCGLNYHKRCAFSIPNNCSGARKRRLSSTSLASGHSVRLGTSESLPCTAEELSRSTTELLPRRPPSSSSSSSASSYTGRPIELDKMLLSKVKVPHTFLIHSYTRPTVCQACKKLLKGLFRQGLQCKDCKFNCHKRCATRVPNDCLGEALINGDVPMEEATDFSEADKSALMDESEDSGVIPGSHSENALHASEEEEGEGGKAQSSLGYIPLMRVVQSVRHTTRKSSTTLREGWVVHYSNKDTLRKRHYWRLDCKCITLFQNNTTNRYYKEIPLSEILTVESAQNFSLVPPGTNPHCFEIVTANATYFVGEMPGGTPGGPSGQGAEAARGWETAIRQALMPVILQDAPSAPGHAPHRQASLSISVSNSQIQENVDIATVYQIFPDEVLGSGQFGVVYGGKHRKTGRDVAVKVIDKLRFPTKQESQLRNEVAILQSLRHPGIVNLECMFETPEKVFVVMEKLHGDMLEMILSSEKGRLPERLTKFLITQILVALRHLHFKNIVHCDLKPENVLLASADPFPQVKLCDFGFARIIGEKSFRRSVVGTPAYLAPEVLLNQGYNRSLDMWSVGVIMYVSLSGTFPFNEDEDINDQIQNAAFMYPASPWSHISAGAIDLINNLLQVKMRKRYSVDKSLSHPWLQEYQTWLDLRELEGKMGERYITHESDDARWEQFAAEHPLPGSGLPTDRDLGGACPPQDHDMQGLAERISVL
UniProt O75475: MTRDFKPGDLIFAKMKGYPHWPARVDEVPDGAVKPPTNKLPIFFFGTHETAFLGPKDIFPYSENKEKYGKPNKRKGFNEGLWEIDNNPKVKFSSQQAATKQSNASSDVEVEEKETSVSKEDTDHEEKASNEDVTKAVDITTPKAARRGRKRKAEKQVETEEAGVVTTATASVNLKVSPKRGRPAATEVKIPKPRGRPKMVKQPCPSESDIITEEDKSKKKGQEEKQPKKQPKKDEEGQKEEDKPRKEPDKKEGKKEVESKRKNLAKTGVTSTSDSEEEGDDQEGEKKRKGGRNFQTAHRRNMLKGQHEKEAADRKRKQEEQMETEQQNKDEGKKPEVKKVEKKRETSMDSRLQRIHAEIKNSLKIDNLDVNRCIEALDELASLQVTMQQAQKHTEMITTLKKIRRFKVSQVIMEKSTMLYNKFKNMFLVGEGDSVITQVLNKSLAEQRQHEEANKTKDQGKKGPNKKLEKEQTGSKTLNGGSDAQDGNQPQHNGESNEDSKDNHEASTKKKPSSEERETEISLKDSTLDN
UniProt O75569: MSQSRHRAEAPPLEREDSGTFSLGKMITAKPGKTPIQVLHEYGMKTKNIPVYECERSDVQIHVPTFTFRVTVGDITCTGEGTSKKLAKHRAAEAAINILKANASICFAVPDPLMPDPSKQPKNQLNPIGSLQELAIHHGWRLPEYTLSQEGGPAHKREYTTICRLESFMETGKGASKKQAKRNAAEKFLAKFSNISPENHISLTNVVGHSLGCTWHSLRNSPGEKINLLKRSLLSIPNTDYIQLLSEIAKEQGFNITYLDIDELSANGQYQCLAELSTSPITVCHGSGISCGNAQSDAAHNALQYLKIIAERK
UniProt Q5THK1: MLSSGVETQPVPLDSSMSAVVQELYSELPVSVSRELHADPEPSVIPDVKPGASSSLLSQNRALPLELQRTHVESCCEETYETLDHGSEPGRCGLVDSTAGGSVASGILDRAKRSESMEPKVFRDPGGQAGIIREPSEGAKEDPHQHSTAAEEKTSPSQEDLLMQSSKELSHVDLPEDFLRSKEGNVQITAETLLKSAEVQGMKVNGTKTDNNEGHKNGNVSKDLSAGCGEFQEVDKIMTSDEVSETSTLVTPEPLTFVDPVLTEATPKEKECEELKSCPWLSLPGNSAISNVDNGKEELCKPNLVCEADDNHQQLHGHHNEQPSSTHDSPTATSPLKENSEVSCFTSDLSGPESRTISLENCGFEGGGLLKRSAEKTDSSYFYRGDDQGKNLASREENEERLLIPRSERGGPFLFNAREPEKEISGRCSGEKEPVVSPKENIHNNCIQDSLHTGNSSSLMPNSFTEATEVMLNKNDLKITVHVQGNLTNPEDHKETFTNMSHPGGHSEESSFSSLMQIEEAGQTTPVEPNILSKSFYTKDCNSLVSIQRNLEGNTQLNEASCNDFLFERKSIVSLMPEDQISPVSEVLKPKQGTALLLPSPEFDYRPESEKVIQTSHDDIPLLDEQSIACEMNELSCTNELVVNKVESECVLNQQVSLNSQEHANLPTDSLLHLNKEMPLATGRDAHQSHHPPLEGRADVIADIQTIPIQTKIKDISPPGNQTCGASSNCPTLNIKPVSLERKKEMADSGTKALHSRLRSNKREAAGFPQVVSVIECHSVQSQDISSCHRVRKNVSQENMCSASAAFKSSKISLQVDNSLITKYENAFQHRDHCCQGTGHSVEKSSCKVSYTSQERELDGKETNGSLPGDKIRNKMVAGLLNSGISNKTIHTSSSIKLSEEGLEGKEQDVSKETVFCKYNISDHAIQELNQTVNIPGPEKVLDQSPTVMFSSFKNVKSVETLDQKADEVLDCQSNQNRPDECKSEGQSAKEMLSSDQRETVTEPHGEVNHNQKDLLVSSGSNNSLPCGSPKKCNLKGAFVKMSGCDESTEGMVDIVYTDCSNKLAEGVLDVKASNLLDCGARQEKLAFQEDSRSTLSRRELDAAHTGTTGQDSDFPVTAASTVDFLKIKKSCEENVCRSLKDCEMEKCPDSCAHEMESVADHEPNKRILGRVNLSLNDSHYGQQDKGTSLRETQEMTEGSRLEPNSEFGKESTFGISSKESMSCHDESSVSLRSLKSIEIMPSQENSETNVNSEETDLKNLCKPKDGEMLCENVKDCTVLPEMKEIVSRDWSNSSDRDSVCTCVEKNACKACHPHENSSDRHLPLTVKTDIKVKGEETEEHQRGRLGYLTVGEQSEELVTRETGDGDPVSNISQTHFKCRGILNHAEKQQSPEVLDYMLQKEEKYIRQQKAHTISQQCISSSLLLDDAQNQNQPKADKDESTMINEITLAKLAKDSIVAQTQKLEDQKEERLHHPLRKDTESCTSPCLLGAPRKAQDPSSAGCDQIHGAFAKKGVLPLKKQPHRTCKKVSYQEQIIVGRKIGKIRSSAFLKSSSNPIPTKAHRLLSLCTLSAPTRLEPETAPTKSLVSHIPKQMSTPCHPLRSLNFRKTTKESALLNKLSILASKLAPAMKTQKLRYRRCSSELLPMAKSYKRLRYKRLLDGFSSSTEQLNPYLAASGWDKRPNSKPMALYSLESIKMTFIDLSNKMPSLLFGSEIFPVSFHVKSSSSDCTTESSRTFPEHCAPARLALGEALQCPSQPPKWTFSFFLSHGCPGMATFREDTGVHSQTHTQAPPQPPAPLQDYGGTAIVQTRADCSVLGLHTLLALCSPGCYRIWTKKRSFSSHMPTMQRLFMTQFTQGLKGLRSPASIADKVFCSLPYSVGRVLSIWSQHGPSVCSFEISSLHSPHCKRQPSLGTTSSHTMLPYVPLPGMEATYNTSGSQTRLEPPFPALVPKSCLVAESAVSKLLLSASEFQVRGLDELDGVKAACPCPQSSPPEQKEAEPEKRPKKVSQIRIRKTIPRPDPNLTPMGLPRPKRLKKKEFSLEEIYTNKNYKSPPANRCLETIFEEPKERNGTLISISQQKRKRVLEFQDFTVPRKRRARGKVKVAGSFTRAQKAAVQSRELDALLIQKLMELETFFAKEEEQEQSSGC
UniProt O94906: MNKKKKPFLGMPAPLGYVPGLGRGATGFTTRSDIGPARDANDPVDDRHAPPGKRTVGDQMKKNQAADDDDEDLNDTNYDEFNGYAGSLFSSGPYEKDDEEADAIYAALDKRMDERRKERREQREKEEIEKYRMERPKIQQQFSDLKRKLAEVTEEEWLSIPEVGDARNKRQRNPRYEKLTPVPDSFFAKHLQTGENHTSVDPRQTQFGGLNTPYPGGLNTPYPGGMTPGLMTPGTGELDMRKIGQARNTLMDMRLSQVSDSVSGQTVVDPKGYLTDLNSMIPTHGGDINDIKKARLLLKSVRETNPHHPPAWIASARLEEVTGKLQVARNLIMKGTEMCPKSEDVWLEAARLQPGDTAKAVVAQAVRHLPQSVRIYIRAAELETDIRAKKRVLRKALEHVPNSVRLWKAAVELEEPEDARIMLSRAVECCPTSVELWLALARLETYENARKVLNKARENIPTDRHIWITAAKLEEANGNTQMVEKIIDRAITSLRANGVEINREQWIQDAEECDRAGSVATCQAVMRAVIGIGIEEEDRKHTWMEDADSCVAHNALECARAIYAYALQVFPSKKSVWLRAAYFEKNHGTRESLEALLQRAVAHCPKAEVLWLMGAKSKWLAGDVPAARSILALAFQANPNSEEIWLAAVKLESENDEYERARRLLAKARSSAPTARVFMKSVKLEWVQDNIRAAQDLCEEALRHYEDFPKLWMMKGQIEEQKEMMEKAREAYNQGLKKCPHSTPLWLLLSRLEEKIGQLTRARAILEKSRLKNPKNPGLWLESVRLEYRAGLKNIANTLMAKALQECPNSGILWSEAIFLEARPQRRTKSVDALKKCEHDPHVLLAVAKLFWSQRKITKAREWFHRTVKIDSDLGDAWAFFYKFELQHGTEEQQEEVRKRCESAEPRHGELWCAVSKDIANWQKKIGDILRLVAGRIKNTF
UniProt Q99873, whole entry, looked up: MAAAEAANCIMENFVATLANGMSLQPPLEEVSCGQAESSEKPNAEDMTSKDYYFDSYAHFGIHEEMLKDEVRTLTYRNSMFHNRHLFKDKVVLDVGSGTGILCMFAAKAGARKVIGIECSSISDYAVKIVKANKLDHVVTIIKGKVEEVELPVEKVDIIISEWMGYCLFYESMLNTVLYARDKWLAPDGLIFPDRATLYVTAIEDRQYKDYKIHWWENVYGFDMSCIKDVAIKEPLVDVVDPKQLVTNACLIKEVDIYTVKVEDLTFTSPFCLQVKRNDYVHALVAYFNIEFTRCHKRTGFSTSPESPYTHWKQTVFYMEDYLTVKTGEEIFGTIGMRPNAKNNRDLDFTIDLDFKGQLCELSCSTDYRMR
UniProt Q05655: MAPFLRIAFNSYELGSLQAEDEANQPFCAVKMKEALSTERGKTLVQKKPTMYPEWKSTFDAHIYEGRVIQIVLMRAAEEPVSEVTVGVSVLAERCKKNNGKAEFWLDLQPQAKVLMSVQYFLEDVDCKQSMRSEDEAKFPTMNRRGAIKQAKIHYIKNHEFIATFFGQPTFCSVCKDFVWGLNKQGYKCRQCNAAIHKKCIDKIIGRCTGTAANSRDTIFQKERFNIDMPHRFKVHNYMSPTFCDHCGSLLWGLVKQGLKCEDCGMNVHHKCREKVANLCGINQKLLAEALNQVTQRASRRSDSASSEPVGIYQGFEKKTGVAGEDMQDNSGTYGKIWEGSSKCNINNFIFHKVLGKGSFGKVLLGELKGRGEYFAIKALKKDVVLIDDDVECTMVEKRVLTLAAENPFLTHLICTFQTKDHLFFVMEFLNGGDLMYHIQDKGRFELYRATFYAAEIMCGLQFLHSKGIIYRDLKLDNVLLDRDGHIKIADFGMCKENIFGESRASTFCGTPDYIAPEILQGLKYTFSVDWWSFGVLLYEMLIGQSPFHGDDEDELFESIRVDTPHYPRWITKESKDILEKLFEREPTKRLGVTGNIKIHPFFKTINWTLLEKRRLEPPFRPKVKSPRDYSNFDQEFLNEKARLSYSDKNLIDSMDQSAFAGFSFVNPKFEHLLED
UniProt P05771, whole entry, looked up: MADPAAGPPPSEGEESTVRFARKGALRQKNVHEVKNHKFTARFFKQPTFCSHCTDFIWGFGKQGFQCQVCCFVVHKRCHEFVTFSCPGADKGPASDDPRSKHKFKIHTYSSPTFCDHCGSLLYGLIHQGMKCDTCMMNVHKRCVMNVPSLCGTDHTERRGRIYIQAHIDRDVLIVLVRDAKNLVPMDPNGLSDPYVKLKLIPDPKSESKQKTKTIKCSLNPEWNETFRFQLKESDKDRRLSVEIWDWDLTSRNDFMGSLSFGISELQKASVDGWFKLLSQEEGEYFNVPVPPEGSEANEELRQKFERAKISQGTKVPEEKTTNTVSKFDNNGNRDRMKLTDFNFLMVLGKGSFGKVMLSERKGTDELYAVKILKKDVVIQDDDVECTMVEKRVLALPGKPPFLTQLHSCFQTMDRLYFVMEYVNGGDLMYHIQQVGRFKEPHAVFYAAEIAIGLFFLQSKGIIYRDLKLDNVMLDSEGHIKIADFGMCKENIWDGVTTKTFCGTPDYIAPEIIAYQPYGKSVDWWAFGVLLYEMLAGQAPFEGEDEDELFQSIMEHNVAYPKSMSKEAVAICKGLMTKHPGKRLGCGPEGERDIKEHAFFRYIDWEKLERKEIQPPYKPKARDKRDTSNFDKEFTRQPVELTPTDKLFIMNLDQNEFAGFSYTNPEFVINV

Compound: Cc1cc(ccc1-c1ccccc1)C(=O)N1CCCN(CC1)C(=O)CCl [compound 10]
Test: probe-labelled cysteine peptide fold change vs DMSO (competition) (log2 fold change); higher = less target engagement (more negative = stronger competition)
Conditions: 10 µM; THP-1; incubation time: 4 h
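Note: competitive profiling in live THP-1 cells: cysteine peptides tagged with an iodoacetamide desthiobiotin (IA-DTB) probe, intensity after compound treatment relative to DMSO-treated cells.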

| Target | probe-labelled cysteine peptide fold change |
| --- | --- |
| PRKD2_Q9BZL6_217_LGTSESLPCTAEELSR (UniProt Q9BZL6) | -0.106 |
| PRKDC_P78527_3347_IIANALSSEPACLAEIEEDK (UniProt P78527) | -0.0765 |
| PRKDC_P78527_2342_NILEESLCELVAK (UniProt P78527) | -0.0245 |
| PSIP1_O75475_204_QPCPSESDIITEEDK (UniProt O75475) | -0.125 |
| PRKRA_O75569_54_NIPVYECER (UniProt O75569) | -0.0806 |
| PRR14L_Q5THK1_228_DLSAGCGEFQEVDK (UniProt Q5THK1) | -0.153 |
| PRPF6_O94906_837_CEHDPHVLLAVAK (UniProt O94906) | -0.198 |
| PRMT1_Q99873_250_QLVTNACLIK (UniProt Q99873) | -0.0181 |
| PRKAB2_O43741_225_DTNISCDPALLPEPNHVMLNHLYALSIK (UniProt O43741) | -0.173 |
| PRPF8_Q6P2Q9_2216+2223_TIIITCSFTPGSCTLTAYK (UniProt Q6P2Q9) | -0.0838 |
| PRKCD_Q05655_175_NHEFIATFFGQPTFCSVCK (UniProt Q05655) | -0.67 |
| PRKCD_Q05655_393_DVVLIDDDVECTMVEKR (UniProt Q05655) | -0.615 |
| PRR14L_Q5THK1_1483_DTESCTSPCLLGAPR (UniProt Q5THK1) | -0.528 |
| PRKD2_Q9BZL6_169_CDGCGLNYHK (UniProt Q9BZL6) | -0.0725 |
| PRIM1_P49642_354_VDQFDPFTVPTISFICR (UniProt P49642) | 0.0272 |
| PRKDC_P78527_1364_KDLCNTHLMR (UniProt P78527) | -0.0343 |
| PRMT1_Q99873_272_VEDLTFTSPFCLQVK (UniProt Q99873) | 0.24 |
| PRKDC_P78527_1312_CFGTGAAGNR (UniProt P78527) | 0.132 |
| PRKD2_Q9BZL6_188_CAFSIPNNCSGAR (UniProt Q9BZL6) | -0.312 |

| Target | probe-labelled cysteine peptide fold change |
| --- | --- |
| PRKDC_P78527_1742_FNNYVDCMKK (UniProt P78527) | -0.121 |
| PRKCD_Q05655_247_VHNYMSPTFCDHCGSLLWGLVK (UniProt Q05655) | -0.553 |
| PRKD2_Q9BZL6_615_HPGIVNLECMFETPEK (UniProt Q9BZL6) | 0.0527 |
| PRKDC_P78527_1432_ITAQSIEELCAVNLYGPDAQVDR (UniProt P78527) | -0.186 |
| PRPF8_Q6P2Q9_2116_FICISDLR (UniProt Q6P2Q9) | 0.018 |
| PRKCB_P05771_217_CSLNPEWNETFR (UniProt P05771) | -0.0468 |
| PRPF6_O94906_550_HTWMEDADSCVAHNALECAR (UniProt O94906) | 0.0185 |
| PRRC2C_Q9Y520_223_IACGPPQAK (UniProt Q9Y520) | -0.388 |
| PRPF6_O94906_837_KCEHDPHVLLAVAK (UniProt O94906) | -0.315 |
| PRPF19_Q9UMS4_5+16_SLICSISNEVPEHPCVSPVSNHVYER (UniProt Q9UMS4) | 0.0585 |
| PSMA1_P25786_92_QECLDSR (UniProt P25786) | -0.082 |
| PRPF8_Q6P2Q9_1896_GSELQLPFQACLK (UniProt Q6P2Q9) | 0.0122 |
| PRKDC_P78527_1335_CTVVVR (UniProt P78527) | 0.00715 |
| PREX1_Q8TCU6_972_QAPLEPHPLCGLDFCPTNCHINLMEVSYPK (UniProt Q8TCU6) | -0.0151 |
| PRMT1_Q99873-3_15_AAAEAANCIMEVSCGQAESSEK (UniProt Q99873) | 0.199 |
| PRMT1_Q99873-3_15_AAAEAANCIMEVSCGQAESSEKPNAEDMTSK (UniProt Q99873) | -0.555 |
| PRTN3_P24158_56_GNPGSHFCGGTLIHPSFVLTAAHCLR (UniProt P24158) | -0.056 |
| PRXL2A_Q9BRX8_88_RPGCFLCR (UniProt Q9BRX8) | -2.04 |
| PRKDC_P78527_42_GLGQECVLSSSPAVLALQTSLVFSR (UniProt P78527) | 0.213 |

Rewritten with bars between the fields: part of the list above
Target | probe-labelled cysteine peptide fold change
PRKD2_Q9BZL6_217_LGTSESLPCTAEELSR (UniProt Q9BZL6) | -0.106
PRKDC_P78527_3347_IIANALSSEPACLAEIEEDK (UniProt P78527) | -0.0765
PRKDC_P78527_2342_NILEESLCELVAK (UniProt P78527) | -0.0245
PSIP1_O75475_204_QPCPSESDIITEEDK (UniProt O75475) | -0.125
PRKRA_O75569_54_NIPVYECER (UniProt O75569) | -0.0806
PRR14L_Q5THK1_228_DLSAGCGEFQEVDK (UniProt Q5THK1) | -0.153
PRPF6_O94906_837_CEHDPHVLLAVAK (UniProt O94906) | -0.198
PRMT1_Q99873_250_QLVTNACLIK (UniProt Q99873) | -0.0181
